One compound from the supplement of paper PMC6411743 can be followed below.

For the assay, the target named is T1, PGLS (UniProt O95336).
T1 sequence (whole entry): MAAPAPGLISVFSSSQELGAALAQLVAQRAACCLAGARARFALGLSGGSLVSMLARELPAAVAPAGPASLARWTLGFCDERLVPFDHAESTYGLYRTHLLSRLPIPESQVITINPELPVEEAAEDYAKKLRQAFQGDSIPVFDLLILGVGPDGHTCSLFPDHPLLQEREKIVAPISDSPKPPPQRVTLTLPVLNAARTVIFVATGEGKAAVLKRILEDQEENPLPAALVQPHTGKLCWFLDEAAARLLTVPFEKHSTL
Nature of the assay: NP40-soluble protein abundance relative to vehicle (solubility fold change) (ratio); higher = more soluble protein in presence of GTP. On the procedure:
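Solubility proteome profiling in Jurkat crude lysate. Lysate was treated with Mg-GTP (0.1-10 mM) for 10 min at room temperature and 3 min at 37 °C, then solubilised with 0.8% NP40 and benzonase, followed by ultracentrifugation. Proteins were quantified by TMT10 LC-MS/MS; the value is the NP40-soluble abundance relative to the NP40-processed vehicle, from 3 independent experiments.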

± gives the standard deviation of the averaged measurements. The list shows a part of the results.

`Nc1nc2c(ncn2[C@@H]2O[C@H](COP(=O)(O)OP(=O)(O)OP(=O)(O)O)[C@@H](O)[C@H]2O)c(=O)[nH]1` [guanosine triphosphate]: the NP40-soluble protein abundance by setting is: (concentration: 0.1mM) 0.913 ± 0.031; (concentration: 0.5mM) 0.857 ± 0.04; (concentration: 1mM) 0.952 ± 0.016; (concentration: 2mM) 0.9351 ± 0.0062; (concentration: 4mM) 0.925 ± 0.022; (concentration: 6mM) 0.903 ± 0.025. Moreover, the NP40-soluble protein abundance reads like this: (concentration: 8mM) 0.823 ± 0.13; (concentration: 10mM) 0.886 ± 0.061.
